Results as given in publication PMC8582450.

The chains behind the UniProt entries cited, without tags or fusion partners.
UniProt P46940: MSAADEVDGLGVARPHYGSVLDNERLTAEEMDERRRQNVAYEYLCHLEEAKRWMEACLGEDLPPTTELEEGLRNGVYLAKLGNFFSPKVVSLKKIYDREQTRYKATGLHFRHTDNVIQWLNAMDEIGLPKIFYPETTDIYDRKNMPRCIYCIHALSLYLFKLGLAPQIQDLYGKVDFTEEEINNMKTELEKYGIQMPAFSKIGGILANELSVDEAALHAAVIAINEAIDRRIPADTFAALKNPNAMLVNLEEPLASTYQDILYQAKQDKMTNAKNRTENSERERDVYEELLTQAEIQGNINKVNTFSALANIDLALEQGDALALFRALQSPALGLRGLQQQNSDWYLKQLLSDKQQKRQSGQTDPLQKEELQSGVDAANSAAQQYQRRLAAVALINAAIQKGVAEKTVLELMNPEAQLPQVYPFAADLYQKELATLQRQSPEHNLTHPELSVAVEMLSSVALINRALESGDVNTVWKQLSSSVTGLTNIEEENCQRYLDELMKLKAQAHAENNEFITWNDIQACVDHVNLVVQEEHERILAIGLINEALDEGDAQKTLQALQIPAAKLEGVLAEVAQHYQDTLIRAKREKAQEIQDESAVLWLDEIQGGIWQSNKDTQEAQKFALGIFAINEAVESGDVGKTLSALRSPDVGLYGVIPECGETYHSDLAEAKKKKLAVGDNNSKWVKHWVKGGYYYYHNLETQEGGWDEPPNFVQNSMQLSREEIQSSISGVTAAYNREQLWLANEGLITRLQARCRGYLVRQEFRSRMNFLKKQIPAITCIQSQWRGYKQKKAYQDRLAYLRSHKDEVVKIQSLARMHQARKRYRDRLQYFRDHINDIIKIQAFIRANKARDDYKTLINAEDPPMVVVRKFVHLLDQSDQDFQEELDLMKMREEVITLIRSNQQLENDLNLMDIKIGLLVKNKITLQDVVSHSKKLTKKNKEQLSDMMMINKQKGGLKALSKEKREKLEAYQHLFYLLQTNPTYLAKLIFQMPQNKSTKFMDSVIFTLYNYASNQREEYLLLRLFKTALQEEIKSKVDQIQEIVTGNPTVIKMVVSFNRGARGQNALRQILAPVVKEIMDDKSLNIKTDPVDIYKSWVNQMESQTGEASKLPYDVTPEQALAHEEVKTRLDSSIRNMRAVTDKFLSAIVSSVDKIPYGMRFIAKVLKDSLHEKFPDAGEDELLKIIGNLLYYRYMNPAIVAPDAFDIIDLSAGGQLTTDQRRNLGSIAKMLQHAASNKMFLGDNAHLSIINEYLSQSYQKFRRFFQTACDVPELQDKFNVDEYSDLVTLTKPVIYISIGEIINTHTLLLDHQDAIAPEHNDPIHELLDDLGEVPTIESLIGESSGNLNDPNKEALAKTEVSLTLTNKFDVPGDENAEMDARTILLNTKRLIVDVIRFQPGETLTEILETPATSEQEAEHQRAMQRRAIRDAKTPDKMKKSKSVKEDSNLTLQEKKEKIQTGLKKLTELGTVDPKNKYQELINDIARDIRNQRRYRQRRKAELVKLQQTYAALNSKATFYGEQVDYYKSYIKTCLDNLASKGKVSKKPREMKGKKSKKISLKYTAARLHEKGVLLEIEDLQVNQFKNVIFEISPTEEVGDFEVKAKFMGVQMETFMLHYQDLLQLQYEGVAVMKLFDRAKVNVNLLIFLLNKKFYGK
UniProt P12004: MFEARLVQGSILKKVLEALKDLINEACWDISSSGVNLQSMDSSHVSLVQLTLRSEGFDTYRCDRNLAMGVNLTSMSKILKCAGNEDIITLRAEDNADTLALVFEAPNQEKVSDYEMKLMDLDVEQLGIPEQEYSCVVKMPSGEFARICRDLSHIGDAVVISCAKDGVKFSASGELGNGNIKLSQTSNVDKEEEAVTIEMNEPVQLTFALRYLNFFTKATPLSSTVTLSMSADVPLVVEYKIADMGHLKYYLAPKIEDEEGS

Columns and labels:
[1] = target: T1, HA-NIS (full-length sodium–iodide symporter with a triple HA tag in the fourth extracellular loop) (human) (UniProt Q92911); experiment: affinity purification with mass spectrometry; WC-IP of HA-NIS from whole cell lysates of HA-NIS-TPC1 cells; nanoLC-MS/MS, triplicates; high-confidence candidates filtered against control IgG IPs
T1 sequence: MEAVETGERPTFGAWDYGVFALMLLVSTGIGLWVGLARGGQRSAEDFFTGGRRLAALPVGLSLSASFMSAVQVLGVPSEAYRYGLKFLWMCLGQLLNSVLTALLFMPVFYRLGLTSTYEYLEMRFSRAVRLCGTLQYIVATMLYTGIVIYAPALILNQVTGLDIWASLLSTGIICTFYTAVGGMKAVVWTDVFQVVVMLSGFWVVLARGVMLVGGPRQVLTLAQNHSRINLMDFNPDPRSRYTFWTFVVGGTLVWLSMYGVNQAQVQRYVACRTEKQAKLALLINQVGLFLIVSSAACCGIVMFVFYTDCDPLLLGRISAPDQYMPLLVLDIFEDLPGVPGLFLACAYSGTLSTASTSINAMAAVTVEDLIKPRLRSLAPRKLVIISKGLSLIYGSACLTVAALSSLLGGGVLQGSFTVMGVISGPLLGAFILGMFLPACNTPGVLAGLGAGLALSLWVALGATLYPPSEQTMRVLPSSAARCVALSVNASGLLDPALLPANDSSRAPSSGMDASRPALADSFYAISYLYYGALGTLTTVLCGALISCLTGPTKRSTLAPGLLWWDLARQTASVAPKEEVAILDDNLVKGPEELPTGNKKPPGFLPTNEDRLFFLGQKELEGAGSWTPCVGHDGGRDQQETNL

[2] = target: T1, HA-NIS (full-length sodium–iodide symporter with a triple HA tag in the fourth extracellular loop) (human); experiment: affinity purification with mass spectrometry; PM-IP of HA-NIS from intact labelled HA-NIS-TPC1 cells; nanoLC-MS/MS, triplicates; high-confidence candidates filtered against control IgG IPs

Substance: IQGAP1 (RAS GTPase-activating-like protein IQGAP1) (from UniProt P46940 1-1657)
- binding [1]: binds
- binding [2]: binds

Substance: PCNA (proliferating cell nuclear antigen) (from UniProt P12004 1-261)
- binding [1]: no binding
- binding [2]: no binding

No constants are given. Whether binding was seen depends on the method and setting. Binding seen in cells or lysates may run through a third protein. Here binding means that the protein was enriched with, or labelled near, the bait; the list need not be complete. A no says only that the protein was not detected with the bait. Sequences can lack the tags named with a protein.
